Results taken from article PMC5080453.
These are yes or no findings as the source states them, for the method shown.

Amino acid sequences for entries named in this document (tags omitted). A change or cut given only in a name is not applied to a line headed by its entry.
UniProt P13497: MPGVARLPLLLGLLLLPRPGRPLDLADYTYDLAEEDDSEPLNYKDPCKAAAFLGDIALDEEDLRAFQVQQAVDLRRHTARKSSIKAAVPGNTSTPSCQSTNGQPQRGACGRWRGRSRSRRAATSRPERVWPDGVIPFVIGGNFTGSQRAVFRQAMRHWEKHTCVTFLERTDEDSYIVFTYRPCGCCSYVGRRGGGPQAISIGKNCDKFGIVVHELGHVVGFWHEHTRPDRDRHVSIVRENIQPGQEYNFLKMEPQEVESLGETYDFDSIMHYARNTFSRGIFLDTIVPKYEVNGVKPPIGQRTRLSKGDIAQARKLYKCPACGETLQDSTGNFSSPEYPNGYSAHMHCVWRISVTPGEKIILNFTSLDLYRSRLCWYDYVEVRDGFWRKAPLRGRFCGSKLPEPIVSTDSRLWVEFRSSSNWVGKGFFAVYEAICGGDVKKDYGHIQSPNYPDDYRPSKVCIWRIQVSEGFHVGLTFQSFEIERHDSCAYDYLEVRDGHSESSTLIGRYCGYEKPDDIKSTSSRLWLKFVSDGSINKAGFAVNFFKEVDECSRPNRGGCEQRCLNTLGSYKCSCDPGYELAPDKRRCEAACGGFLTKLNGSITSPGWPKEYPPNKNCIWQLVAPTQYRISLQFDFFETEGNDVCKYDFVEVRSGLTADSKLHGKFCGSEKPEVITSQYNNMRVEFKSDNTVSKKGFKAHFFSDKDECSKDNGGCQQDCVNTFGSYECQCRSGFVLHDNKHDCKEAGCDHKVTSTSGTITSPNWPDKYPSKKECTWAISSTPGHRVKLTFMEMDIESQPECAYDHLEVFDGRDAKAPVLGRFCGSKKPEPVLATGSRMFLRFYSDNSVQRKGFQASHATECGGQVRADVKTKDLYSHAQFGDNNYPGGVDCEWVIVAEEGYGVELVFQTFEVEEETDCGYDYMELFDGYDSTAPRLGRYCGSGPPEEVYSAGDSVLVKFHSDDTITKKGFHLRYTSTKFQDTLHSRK

Target: mammalian tolloid (mTld) (UniProt P13497)
Assay: SPR; Biacore T200, CM5 chip; 2400 RU of mTlD immobilised by amine coupling; 500 nM Tsg or 500 nM ΔN-chordin injected; 25 °C, 10 mM Hepes, 150 mM NaCl, 3 mM EDTA, 0.005% Tween-20, pH 7.4, 30 μl/min; both purified

B1: human twisted gastrulation (Tsg), native (glycosylated) (protein, UniProt Q9GZX9 26-223)
chain: CNKALCASDVSKCLIQELCQCRPGEGNCSCCKECMLCLGALWDECCDCVGMCNPRNYSDTPPTSKSTVEELHEPIPSLFRALTEGDTQLNWNIVSFPVAEELSHHENLVSFLETVNQPHHQNVSVPSNNVHAPYSSDKEHMCTVVYFDDCMSIHQCKISCESMGASKYRWFHNACCECIGPECIDYGSKTVKCMNCMF
modifications: N-linked glycans (three predicted N-linked glycosylation sites)
With B1 the binding was “no binding (tested: 500 nM)”.
